From US12532661B2, “Compound and organic light emitting device comprising the same” (LG Chem, Ltd., priority 2020, dated 2026)

Assay: Organic light emitting device evaluation with the compound as dopant of the light emitting layer
Details: for Driving voltage (V @ 10 mA/cm^2): device with compound as dopant (2:98 with host Compound D), current 10 mA/cm^2; for EQE (% @ 10 mA/cm^2): external quantum efficiency, device with compound as dopant; for Lifetime (hr) (T90 @ 500 nit): time for luminance to fall to 90% of initial luminance (500 nit); for EQE (% @ 10 mA/cm^2) / Lifetime (hr) (T90 @ 500 nit): 10 mA/cm^2

SMILES	Driving voltage (V @ 10 mA/cm^2)	EQE (% @ 10 mA/cm^2)	Lifetime (hr) (T90 @ 500 nit)
Cc1cccc(N(c2ccc3c4c5ccc6c(c5ccc4n(-c4ccccc4)c3c2)c2ccc(Oc3ccc(-c4cc(-c5ccc(Oc7ccc8c9c%10ccc%11c(c%10ccc9n(-c9ccccc9)c8c7)c7ccc(N(c8cccc(C)c8)c8cccc9c8oc8ccccc89)cc7n%11-c7ccccc7)cc5)cc(-c5ccc(Oc7ccc8c9c%10ccc%11c(c%10ccc9n(-c9ccccc9)c8c7)c7ccc(N(c8cccc(C)c8)c8cccc9c8oc8ccccc89)cc7n%11-c7ccccc7)cc5)c4)cc3)cc2n6-c2ccccc2)c2cccc3c2oc2ccccc23)c1 [Compound 16]	4.69 V	8.71%	219 h
c1ccc(-n2c3ccccc3c3cc(-c4ccc(N(c5ccc6ccccc6c5)c5ccc6c7c8ccc9c(c8ccc7n(-c7ccccc7)c6c5)c5ccc(N(c6ccc7c8c%10ccc%11c(c%10ccc8n(-c8ccccc8)c7c6)c6ccc(N(c7ccc(-c8ccc%10c(c8)c8ccccc8n%10-c8ccccc8)cc7)c7ccc8ccccc8c7)cc6n%11-c6ccccc6)c6ccc7c8c%10ccc%11c(c%10ccc8n(-c8ccccc8)c7c6)c6ccc(N(c7ccc(-c8ccc%10c(c8)c8ccccc8n%10-c8ccccc8)cc7)c7ccc8ccccc8c7)cc6n%11-c6ccccc6)cc5n9-c5ccccc5)cc4)ccc32)cc1 [Compound 3]	4.67 V	8.71%	207 h
c1ccc(-n2c3ccccc3c3cc(-c4ccc(N(c5ccc6ccccc6c5)c5ccc6c7c8ccc9c(c8ccc7n(-c7ccccc7)c6c5)c5ccc(N(c6ccc(-c7ccc8c(c7)c7ccccc7n8-c7ccccc7)cc6)c6ccc7ccccc7c6)cc5n9-c5ccccc5)cc4)ccc32)cc1 [Compound H, reference compound]	4.66 V	7.11%	67 h
Cc1cccc(N(c2ccc3c4c5ccc6c(c5ccc4n(-c4ccccc4)c3c2)c2ccc(N(c3ccc4c5c7ccc8c(c7ccc5n(-c5ccccc5)c4c3)c3ccc(N(c4cccc(C)c4)c4cccc5c4oc4ccccc45)cc3n8-c3ccccc3)c3ccc4c5c7ccc8c(c7ccc5n(-c5ccccc5)c4c3)c3ccc(N(c4cccc(C)c4)c4cccc5c4oc4ccccc45)cc3n8-c3ccccc3)cc2n6-c2ccccc2)c2cccc3c2oc2ccccc23)c1 [Compound 1]	4.68 V	8.76%	220 h
Cc1cccc(N(c2ccc3c4c5ccc6c(c5ccc4n(-c4ccccc4)c3c2)c2ccc(Oc3cc(Oc4ccc5c7c8ccc9c(c8ccc7n(-c7ccccc7)c5c4)c4ccc(N(c5cccc(C)c5)c5cccc7c5oc5ccccc57)cc4n9-c4ccccc4)cc(Oc4ccc5c7c8ccc9c(c8ccc7n(-c7ccccc7)c5c4)c4ccc(N(c5cccc(C)c5)c5cccc7c5oc5ccccc57)cc4n9-c4ccccc4)c3)cc2n6-c2ccccc2)c2cccc3c2oc2ccccc23)c1 [Compound 14]	4.63 V	8.70%	215 h
Cc1cccc(N(c2ccc3c4c5ccc6c(c5ccc4n(-c4ccccc4)c3c2)c2ccc(N(c3cccc(C)c3)c3cccc4c3oc3ccccc34)cc2n6-c2ccccc2)c2cccc3c2oc2ccccc23)c1 [Compound F, reference compound]	4.70 V	6.87%	58 h
CC(C)(C)c1ccc(N(c2ccc(C(C)(C)C)cc2)c2ccc3c4c5ccc6c(c5ccc4n(-c4ccccc4)c3c2)c2ccc(-c3cc(-c4ccc5c7c8ccc9c(c8ccc7n(-c7ccccc7)c5c4)c4ccc(N(c5ccc(C(C)(C)C)cc5)c5ccc(C(C)(C)C)cc5)cc4n9-c4ccccc4)cc(-c4ccc5c7c8ccc9c(c8ccc7n(-c7ccccc7)c5c4)c4ccc(N(c5ccc(C(C)(C)C)cc5)c5ccc(C(C)(C)C)cc5)cc4n9-c4ccccc4)c3)cc2n6-c2ccccc2)cc1 [Compound 5]	4.69 V	8.69%	219 h
Cc1cccc(N(c2ccc3c4c5ccc6c(c5ccc4n(-c4ccccc4)c3c2)c2ccc(Oc3cccc(-c4cc(-c5cccc(Oc7ccc8c9c%10ccc%11c(c%10ccc9n(-c9ccccc9)c8c7)c7ccc(N(c8cccc(C)c8)c8cccc9c8oc8ccccc89)cc7n%11-c7ccccc7)c5)cc(-c5cccc(Oc7ccc8c9c%10ccc%11c(c%10ccc9n(-c9ccccc9)c8c7)c7ccc(N(c8cccc(C)c8)c8cccc9c8oc8ccccc89)cc7n%11-c7ccccc7)c5)c4)c3)cc2n6-c2ccccc2)c2cccc3c2oc2ccccc23)c1 [Compound 15]	4.68 V	8.75%	222 h
Cc1cccc(N(c2ccc3c(c2)c2c4ccc5c(c4ccc2n3-c2ccccc2)c2cc(N(c3ccc4c(c3)c3c6ccc7c(c6ccc3n4-c3ccccc3)c3cc(N(c4cccc(C)c4)c4cccc6c4oc4ccccc46)ccc3n7-c3ccccc3)c3ccc4c(c3)c3c6ccc7c(c6ccc3n4-c3ccccc3)c3cc(N(c4cccc(C)c4)c4cccc6c4oc4ccccc46)ccc3n7-c3ccccc3)ccc2n5-c2ccccc2)c2cccc3c2oc2ccccc23)c1 [Compound 17]	4.58 V	8.74%	224 h
Cc1cccc(N(c2cccc3c2oc2ccccc23)c2cccc3c2c2c4ccc5c(c4ccc2n3-c2ccccc2)c2c(N(c3cccc4c3c3c6ccc7c(c6ccc3n4-c3ccccc3)c3c(N(c4cccc(C)c4)c4cccc6c4oc4ccccc46)cccc3n7-c3ccccc3)c3cccc4c3c3c6ccc7c(c6ccc3n4-c3ccccc3)c3c(N(c4cccc(C)c4)c4cccc6c4oc4ccccc46)cccc3n7-c3ccccc3)cccc2n5-c2ccccc2)c1 [Compound 19]	4.59 V	8.79%	219 h
CC(C)(C)c1ccc(N(c2ccc(C(C)(C)C)cc2)c2ccc3c4c5ccc6c(c5ccc4n(-c4ccccc4)c3c2)c2ccc(N(c3ccc(C(C)(C)C)cc3)c3ccc(C(C)(C)C)cc3)cc2n6-c2ccccc2)cc1 [Compound G, reference compound]	4.68 V	7.11%	67 h
CC(C)(C)c1ccc(N(c2ccc(C(C)(C)C)cc2)c2ccc3c4c5ccc6c(c5ccc4n(-c4ccccc4)c3c2)c2ccc(N(c3ccc(C(C)(C)C)cc3)c3cc(N(c4ccc(C(C)(C)C)cc4)c4ccc5c7c8ccc9c(c8ccc7n(-c7ccccc7)c5c4)c4ccc(N(c5ccc(C(C)(C)C)cc5)c5ccc(C(C)(C)C)cc5)cc4n9-c4ccccc4)cc(N(c4ccc(C(C)(C)C)cc4)c4ccc5c7c8ccc9c(c8ccc7n(-c7ccccc7)c5c4)c4ccc(N(c5ccc(C(C)(C)C)cc5)c5ccc(C(C)(C)C)cc5)cc4n9-c4ccccc4)c3)cc2n6-c2ccccc2)cc1 [Compound 12]	4.59 V	8.64%	218 h
Cc1cccc(N(c2ccc3c4c5ccc6c(c5ccc4n(-c4ccccc4)c3c2)c2ccc(-c3cc(-c4ccc5c7c8ccc9c(c8ccc7n(-c7ccccc7)c5c4)c4ccc(N(c5cccc(C)c5)c5cccc7c5oc5ccccc57)cc4n9-c4ccccc4)cc(-c4ccc5c7c8ccc9c(c8ccc7n(-c7ccccc7)c5c4)c4ccc(N(c5cccc(C)c5)c5cccc7c5oc5ccccc57)cc4n9-c4ccccc4)c3)cc2n6-c2ccccc2)c2cccc3c2oc2ccccc23)c1 [Compound 4]	4.63 V	8.73%	213 h
